The experiment concerns the target Low-density lipoprotein receptor-related protein 1 (human (endogenous in hLECs)) (UniProt Q07954). As to the kind of experiment: co-IP; living hLECs treated with His-tagged recombinant human Hsp90α (200 ng/mL) for 15 min, washed with PBS; interactions stabilised with 3 mg/mL DTBP cross-linker for 2 h at 4 °C; lysis in 20 mM Tris, 150 mM NaCl, 1% Triton X-100; supernatant incubated with indicated antibodies overnight at 4 °C; protein A-sepharose beads; Western blotting; only the binder purified.

By UniProt entry, the sequences of proteins in these tests, tags left out. Residues count along the entry.
UniProt Q07954, residues 20-4544: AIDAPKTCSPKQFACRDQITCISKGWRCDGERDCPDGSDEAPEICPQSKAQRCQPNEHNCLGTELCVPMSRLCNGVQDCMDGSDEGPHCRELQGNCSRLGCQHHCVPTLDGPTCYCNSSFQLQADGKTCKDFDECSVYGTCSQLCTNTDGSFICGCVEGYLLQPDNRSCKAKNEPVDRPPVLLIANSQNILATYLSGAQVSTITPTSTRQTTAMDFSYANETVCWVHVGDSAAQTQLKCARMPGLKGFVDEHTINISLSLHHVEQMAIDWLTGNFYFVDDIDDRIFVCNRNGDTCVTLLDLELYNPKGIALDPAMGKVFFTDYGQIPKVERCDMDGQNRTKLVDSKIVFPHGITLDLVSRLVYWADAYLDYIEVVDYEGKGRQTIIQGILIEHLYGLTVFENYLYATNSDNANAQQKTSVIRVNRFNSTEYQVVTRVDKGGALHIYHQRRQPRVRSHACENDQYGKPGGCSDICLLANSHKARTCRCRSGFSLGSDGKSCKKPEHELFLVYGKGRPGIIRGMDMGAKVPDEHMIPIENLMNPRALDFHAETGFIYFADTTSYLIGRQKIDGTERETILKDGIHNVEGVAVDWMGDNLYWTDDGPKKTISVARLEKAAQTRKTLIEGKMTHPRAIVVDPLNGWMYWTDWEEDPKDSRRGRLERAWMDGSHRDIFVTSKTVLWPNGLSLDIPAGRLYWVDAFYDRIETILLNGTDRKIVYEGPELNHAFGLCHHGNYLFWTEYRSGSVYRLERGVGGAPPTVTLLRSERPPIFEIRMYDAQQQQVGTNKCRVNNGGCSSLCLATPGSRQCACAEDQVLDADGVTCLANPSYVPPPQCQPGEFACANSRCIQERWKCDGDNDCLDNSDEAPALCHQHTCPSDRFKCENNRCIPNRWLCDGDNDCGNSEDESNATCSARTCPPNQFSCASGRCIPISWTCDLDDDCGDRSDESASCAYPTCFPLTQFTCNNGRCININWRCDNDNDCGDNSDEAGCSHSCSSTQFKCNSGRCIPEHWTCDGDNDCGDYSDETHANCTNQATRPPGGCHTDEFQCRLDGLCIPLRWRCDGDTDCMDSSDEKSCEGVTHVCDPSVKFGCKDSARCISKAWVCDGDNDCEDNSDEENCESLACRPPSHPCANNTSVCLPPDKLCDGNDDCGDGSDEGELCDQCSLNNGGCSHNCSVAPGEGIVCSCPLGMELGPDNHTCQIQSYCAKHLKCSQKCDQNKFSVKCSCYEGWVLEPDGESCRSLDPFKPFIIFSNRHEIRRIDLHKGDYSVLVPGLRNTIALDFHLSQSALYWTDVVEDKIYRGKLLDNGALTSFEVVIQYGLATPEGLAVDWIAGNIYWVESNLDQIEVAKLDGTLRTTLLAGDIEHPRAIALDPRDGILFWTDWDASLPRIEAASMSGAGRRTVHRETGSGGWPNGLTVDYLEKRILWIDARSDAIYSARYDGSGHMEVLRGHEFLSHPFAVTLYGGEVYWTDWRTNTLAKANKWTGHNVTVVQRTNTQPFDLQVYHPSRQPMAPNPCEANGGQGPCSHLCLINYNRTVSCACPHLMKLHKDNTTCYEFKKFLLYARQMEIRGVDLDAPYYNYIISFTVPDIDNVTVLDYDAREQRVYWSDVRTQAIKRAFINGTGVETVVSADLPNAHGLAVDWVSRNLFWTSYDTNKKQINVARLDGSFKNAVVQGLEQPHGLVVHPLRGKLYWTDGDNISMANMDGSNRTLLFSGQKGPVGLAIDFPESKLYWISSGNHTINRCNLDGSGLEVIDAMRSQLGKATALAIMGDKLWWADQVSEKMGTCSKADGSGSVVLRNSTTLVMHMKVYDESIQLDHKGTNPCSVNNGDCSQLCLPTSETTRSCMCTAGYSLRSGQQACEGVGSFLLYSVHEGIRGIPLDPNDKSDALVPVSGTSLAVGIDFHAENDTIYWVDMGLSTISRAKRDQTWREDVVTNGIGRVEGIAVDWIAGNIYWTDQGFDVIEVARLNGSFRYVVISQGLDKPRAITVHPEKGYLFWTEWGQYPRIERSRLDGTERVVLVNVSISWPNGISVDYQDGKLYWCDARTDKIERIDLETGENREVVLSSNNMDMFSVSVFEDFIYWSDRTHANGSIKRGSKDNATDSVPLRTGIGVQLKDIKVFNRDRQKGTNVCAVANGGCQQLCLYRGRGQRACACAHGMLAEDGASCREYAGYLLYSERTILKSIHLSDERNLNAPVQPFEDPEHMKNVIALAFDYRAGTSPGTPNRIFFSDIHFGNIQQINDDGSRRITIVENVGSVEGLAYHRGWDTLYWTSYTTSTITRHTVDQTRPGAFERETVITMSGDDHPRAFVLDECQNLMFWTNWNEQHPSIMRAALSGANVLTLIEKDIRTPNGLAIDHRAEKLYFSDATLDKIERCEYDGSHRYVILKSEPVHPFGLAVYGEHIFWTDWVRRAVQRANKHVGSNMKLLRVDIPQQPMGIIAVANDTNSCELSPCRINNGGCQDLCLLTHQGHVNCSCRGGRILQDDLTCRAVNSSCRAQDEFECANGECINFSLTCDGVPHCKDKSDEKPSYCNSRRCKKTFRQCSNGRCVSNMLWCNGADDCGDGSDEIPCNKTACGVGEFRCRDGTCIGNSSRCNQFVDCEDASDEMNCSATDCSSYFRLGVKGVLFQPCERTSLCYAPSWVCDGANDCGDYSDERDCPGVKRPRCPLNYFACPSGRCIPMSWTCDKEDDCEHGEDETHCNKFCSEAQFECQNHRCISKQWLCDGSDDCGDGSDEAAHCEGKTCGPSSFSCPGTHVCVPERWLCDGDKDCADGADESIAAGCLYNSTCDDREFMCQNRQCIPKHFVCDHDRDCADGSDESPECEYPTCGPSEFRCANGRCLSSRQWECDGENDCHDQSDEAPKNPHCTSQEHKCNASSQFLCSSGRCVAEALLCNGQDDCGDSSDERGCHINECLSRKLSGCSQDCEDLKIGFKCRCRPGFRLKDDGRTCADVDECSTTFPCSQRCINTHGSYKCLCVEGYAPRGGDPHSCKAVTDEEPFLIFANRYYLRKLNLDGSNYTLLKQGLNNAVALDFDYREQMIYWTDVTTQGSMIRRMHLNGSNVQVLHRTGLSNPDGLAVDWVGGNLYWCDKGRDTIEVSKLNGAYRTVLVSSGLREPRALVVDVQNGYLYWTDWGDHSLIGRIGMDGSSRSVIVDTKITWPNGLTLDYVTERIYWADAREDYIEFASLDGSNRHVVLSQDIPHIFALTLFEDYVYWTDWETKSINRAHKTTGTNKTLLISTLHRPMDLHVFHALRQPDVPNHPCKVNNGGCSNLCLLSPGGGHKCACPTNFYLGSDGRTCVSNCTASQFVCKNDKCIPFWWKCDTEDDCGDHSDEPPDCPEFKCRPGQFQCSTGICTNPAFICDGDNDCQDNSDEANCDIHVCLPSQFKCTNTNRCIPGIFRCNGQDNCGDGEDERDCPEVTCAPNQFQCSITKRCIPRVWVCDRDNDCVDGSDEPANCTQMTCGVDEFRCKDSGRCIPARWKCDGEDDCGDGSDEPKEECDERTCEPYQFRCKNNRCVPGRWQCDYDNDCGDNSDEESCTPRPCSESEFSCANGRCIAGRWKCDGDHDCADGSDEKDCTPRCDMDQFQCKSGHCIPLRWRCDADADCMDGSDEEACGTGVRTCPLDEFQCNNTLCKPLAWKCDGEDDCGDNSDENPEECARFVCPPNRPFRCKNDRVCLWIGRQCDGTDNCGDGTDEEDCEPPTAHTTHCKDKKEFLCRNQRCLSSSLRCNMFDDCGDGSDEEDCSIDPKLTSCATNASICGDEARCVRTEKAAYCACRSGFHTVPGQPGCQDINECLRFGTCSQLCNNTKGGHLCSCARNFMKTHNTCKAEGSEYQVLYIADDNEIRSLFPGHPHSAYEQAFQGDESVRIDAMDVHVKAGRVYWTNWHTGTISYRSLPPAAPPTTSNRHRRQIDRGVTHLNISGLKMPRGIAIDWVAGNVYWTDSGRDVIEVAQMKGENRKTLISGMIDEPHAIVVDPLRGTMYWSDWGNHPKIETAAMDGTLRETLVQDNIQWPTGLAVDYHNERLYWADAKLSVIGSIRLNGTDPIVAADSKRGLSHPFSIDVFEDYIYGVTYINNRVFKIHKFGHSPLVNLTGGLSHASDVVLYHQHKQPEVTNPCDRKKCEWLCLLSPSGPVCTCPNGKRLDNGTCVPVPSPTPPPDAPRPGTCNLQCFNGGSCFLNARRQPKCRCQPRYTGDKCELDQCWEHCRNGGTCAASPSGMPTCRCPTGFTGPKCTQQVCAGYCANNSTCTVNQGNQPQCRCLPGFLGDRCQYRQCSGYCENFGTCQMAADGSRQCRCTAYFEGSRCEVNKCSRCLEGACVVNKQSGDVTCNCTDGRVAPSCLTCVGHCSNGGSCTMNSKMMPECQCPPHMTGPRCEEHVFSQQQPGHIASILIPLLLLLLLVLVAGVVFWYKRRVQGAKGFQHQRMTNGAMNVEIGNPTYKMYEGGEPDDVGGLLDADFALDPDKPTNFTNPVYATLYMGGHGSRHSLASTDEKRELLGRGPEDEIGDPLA

These are yes or no findings as the source states them, for the method shown. Binding seen in cells or lysates may run through a third protein. Some entries that bind do so weakly or less than the wild type.

The source of these data is PMC8305043.

For “Recombinant human Hsp90α protein (with 6 × His Tag) (from UniProt P07900 1-732)”, the binding entry was “binds”.
